# Data published in PubChem BioAssay AID330 (DTP/NCI, 2004).
# The list is a part of this screen's results and no random one: it is rich in T/C values a quarter to a half above the control, in often repeated tests (any T/C) and in doses without a T/C. Other doses and runs of a compound stand elsewhere. T/C: endpoint of the treated group in % of that of the vehicle group. Some doses have a count of surviving animals in place of a T/C: the source holds a T/C of zero for them, seemingly a mark for toxic or unscored doses. Some survivor counts are full or nearly so, which does not show that the dose was tolerated: survival well below the control is almost never listed, so the zero probably covers shortened survival too. Counts of survivors are from the toxicity check (mostly the fifth day) where no day follows; animals may have died later. Schedule codes are those of the source, read here as Q, the interval in days (D) or hours (H), X, the number of doses. Some entries were tested several times; the values are given in rising order. Where survival is the endpoint, this PubChem deposit counts one and a half times the control or more as active, and values a quarter to a half above the control carry no call in these data; other NCI protocols may use other cut-offs. Some T/C values carry the count of animals alive at the toxicity check (mostly the fifth day); where none is given, no animal had died by that day.
# Tested on: P388 leukemia ip, CD2F1 mice, survival T/C
# Test: NCI In Vivo Anticancer Drug Screen. Data for tumor model P388 Leukemia (intraperitoneal) in CD2F1 (CDF1) mice
# Conditions: T/C endpoint: median survival time, higher T/C = longer survival
# [1] = dose: 12.5 mg/kg/injection, schedule: Q01DX009 (ip), vehicle: saline
# [2] = dose: 120.0 mg/kg/injection, schedule: Q01DX005 (ip), vehicle: Klucel (hydroxypropylcellulose) (HPC)
# [3] = dose: 240.0 mg/kg/injection, schedule: Q01DX005 (ip), vehicle: Klucel (hydroxypropylcellulose) (HPC)
# [4] = dose: 100.0 mg/kg/injection, schedule: Q04DX002 (ip), vehicle: saline with Tween-80
# [5] = dose: 60.0 mg/kg/injection, schedule: Q01DX005 (ip), vehicle: Klucel (hydroxypropylcellulose) (HPC)
# [6] = dose: 100.0 mg/kg/injection, schedule: Q01DX009 (ip), vehicle: saline
# [7] = dose: 200.0 mg/kg/injection, schedule: Q01DX005 (ip), vehicle: saline with Tween-80
# [8] = dose: 50.0 mg/kg/injection, schedule: Q01DX005 (ip), vehicle: saline with Tween-80
# [9] = dose: 100.0 mg/kg/injection, schedule: Q01DX005 (ip), vehicle: saline with Tween-80
# [10] = dose: 50.0 mg/kg/injection, schedule: Q01DX009 (ip), vehicle: saline with Tween-80
# [11] = dose: 100.0 mg/kg/injection, schedule: Q01DX009 (ip), vehicle: saline with Tween-80
# [12] = dose: 200.0 mg/kg/injection, schedule: Q01DX009 (ip), vehicle: saline with Tween-80
# [13] = dose: 200.0 mg/kg/injection, schedule: Q01DX005 (ip), vehicle: saline
# [14] = dose: 5.0 mg/kg/injection, schedule: Q01DX009 (ip), vehicle: saline
# [15] = dose: 200.0 mg/kg/injection, schedule: Q01DX005 (ip), vehicle: Klucel (hydroxypropylcellulose) (HPC)
smiles,measurement,setting,value
CC1(C)CO[Se](=O)OC1,survivor count,"dose: 6.25 mg/kg/injection, schedule: Q01DX009 (ip), vehicle: saline",2 of 6
same,survivor count,[1],0 of 6
COc1cc(OC)c(NC(=O)C2=C(C)NC(C)=C(C(=O)Nc3cc(Cl)c(OC)cc3OC)C2c2cccc([N+](=O)[O-])c2)cc1Cl,survivor count,[2],6 of 6
same,survivor count,[3],6 of 6
CN=C(N)NN=C(c1ccc(Cl)cc1)c1ccc(Cl)cc1,T/C,"dose: 25.0 mg/kg/injection, schedule: Q04DX002 (ip), vehicle: saline with Tween-80",138 % of control
same,survivor count,"dose: 50.0 mg/kg/injection, schedule: Q04DX002 (ip), vehicle: saline with Tween-80",2 of 6
same,survivor count,[4],0 of 6
CCOc1ccc(N=Nc2c(C)nn(C(=S)S)c2OCC)cc1,survivor count,[5],0 of 6
same,survivor count,[2],0 of 6
same,survivor count,[3],0 of 6
CC1(C)CCCC2(C)C1CCC1(C)OC(/C(C=O)=C/C=O)CC12 (stereo unspecified),survivor count,"dose: 160.0 mg/kg/injection, schedule: Q01DX009 (ip), vehicle: Klucel (hydroxypropylcellulose) (HPC)",1 of 6
CC(C)COc1cccc2[oH+]c(C(=O)[O-])cc(=O)c12.CC(C)COc1cccc2[oH+]c(C(=O)[O-])cc(=O)c12.[Cu+2],survivor count,[4],1 of 6
same,survivor count,"dose: 200.0 mg/kg/injection, schedule: Q04DX002 (ip), vehicle: saline with Tween-80",0 of 6
same,survivor count,"dose: 400.0 mg/kg/injection, schedule: Q04DX002 (ip), vehicle: saline with Tween-80",0 of 6
CCn1c2ccc(C(=O)CCCN(C)C)cc2c2cc(C(=O)CCCN(C)C)ccc21,T/C,[1],132 % of control
same,T/C,"dose: 25.0 mg/kg/injection, schedule: Q01DX009 (ip), vehicle: saline",129 % of control
same,T/C,"dose: 50.0 mg/kg/injection, schedule: Q01DX009 (ip), vehicle: saline","102, 107, 109, 122 % of control [5 of 6 alive]"
same,survivor count,[6],"0 of 6, 1 of 6, 2 of 6"
same,survivor count,"dose: 200.0 mg/kg/injection, schedule: Q01DX009 (ip), vehicle: saline",0 of 6
Nc1nc(N)c2cc(CNc3ccc(C(=O)NC(CCC(=O)O)C(=O)O)cc3)cnc2n1 (stereo unspecified),T/C,"dose: 0.25 mg/kg/injection, schedule: Q01DX005 (ip), vehicle: saline with Tween-80",125 % of control
same,T/C,"dose: 0.5 mg/kg/injection, schedule: Q01DX005 (ip), vehicle: saline with Tween-80",146 % of control
same,T/C,"dose: 1.0 mg/kg/injection, schedule: Q01DX005 (ip), vehicle: saline with Tween-80",146 % of control
same,T/C,"dose: 2.0 mg/kg/injection, schedule: Q01DX005 (ip), vehicle: saline with Tween-80",143 % of control
same,survivor count,"dose: 4.0 mg/kg/injection, schedule: Q01DX005 (ip), vehicle: saline with Tween-80",9 of 9
same,survivor count,"dose: 8.0 mg/kg/injection, schedule: Q01DX005 (ip), vehicle: saline with Tween-80",8 of 8
O=C(OCOC(=O)N1CCOCC1)N1CCOCC1,survivor count,"dose: 120.0 mg/kg/injection, schedule: Q01DX005 (ip), vehicle: saline with Tween-80",6 of 6
O=NNc1ccc(F)cn1,T/C,"dose: 6.25 mg/kg/injection, schedule: Q01DX009 (ip), vehicle: water",125 and 126 % of control
same,T/C,"dose: 12.5 mg/kg/injection, schedule: Q01DX009 (ip), vehicle: water",141 % of control
same,survivor count,"dose: 50.0 mg/kg/injection, schedule: Q01DX009 (ip), vehicle: water",5 of 6
COc1cc(C=Nc2cc(Cl)c(Cl)c(Cl)c2)ccc1N(CCCl)CCCl,T/C,"dose: 1.1 mg/kg/injection, schedule: Q01DX009 (ip), vehicle: Klucel (hydroxypropylcellulose) (HPC)",135 % of control
CCCCCCCCCCCCCCCCCCOCC(CO)OC (stereo unspecified),T/C,[7],125 % of control
CCOC(=O)C(=C\c1nncn1-c1ccccc1)/C=C(/O)c1ccccc1,survivor count,[5],6 of 6
same,survivor count,[2],6 of 6
same,survivor count,[3],6 of 6
CC(=O)OCC1=C(c2ccccc2)S(=O)(=O)c2ccccc2C1=O,survivor count,[8],1 of 6
same,survivor count,[9],0 of 6
same,survivor count,[7],0 of 6
CCCC/C=C/[Se]c1ccccc1,T/C,[10],135 % of control
same,T/C,[11],129 % of control
same,survivor count,[12],2 of 6 and 4 of 6
CCS1=C2C(=O)CCCC2=Nc2ccccc21 (stereo unspecified),survivor count,"dose: 100.0 mg/kg/injection, schedule: Q01DX005 (ip), vehicle: saline",0 of 6
same,survivor count,[13],0 of 6
CCOC(=O)c1cc(Cl)cc2c(=O)c3c(O)c4[nH]c5c(C(=O)OCC)cc(Cl)cc5c(=O)c4c(O)c3[nH]c12,survivor count,"dose: 200.0 mg/kg/injection, schedule: Q01DX009 (ip), vehicle: Klucel (hydroxypropylcellulose) (HPC)",3 of 6
CC(=O)Nc1ccsc1,survivor count,[13],1 of 6
same,survivor count,"dose: 400.0 mg/kg/injection, schedule: Q01DX005 (ip), vehicle: saline",0 of 6
c1cc[c]([Sn][c]2ccccc2)cc1,T/C,"dose: 1.25 mg/kg/injection, schedule: Q01DX009 (ip), vehicle: saline",137 and 145 % of control
same,T/C,"dose: 2.5 mg/kg/injection, schedule: Q01DX009 (ip), vehicle: saline",144 % of control
same,T/C,[14],145 % of control
same,survivor count,[14],1 of 6
same,survivor count,"dose: 10.0 mg/kg/injection, schedule: Q01DX009 (ip), vehicle: saline",1 of 6
O=C(Nc1nc2c(Cl)cccc2s1)C(F)(F)C(F)(F)C(F)(F)F (tested in a mixture with another compound),survivor count,[12],0 of 6
CCCCOC(=O)NC(=O)c1cc2cc(Cl)ccc2oc1=O,survivor count,[7],6 of 6
CCc1ccc2c(c1)N(CCCN(CCCl)CCCl)c1ccccc1S2,T/C,"dose: 3.13 mg/kg/injection, schedule: Q01DX009 (ip), vehicle: saline with Tween-80",134 and 138 % of control
same,T/C,"dose: 6.25 mg/kg/injection, schedule: Q01DX009 (ip), vehicle: saline with Tween-80",138 and 141 % of control
same,survivor count,"dose: 12.5 mg/kg/injection, schedule: Q01DX009 (ip), vehicle: saline with Tween-80",5 of 6 and 6 of 6
same,survivor count,"dose: 25.0 mg/kg/injection, schedule: Q01DX009 (ip), vehicle: saline with Tween-80",1 of 6
Cc1ccccc1C(=O)Nc1ccccc1-c1ccccc1,survivor count,[6],5 of 6
Cc1cnc(N)c(C(=O)O)n1,survivor count,[15],3 of 5
CN(C)Cc1cc(CN(C)C)c(O)c(CN(C)C)c1,survivor count,[12],2 of 6
same,survivor count,"dose: 400.0 mg/kg/injection, schedule: Q01DX009 (ip), vehicle: saline with Tween-80",0 of 6
CC(C)c1oc(=O)cc2c1C(O)C1OC(=O)C3(C)C(O)C4OC4C2(C)C13 (stereo unspecified) (tested in a mixture with another compound),T/C,"dose: 30.0 mg/kg/injection, schedule: Q01DX009 (ip), vehicle: saline with Tween-80",128 % of control
CC1(C)CCC(C)(C)NC(=S)N1,survivor count,[10],0 of 6
same,survivor count,[11],0 of 6
same,survivor count,[12],0 of 6
CC(C)NC(=O)OCc1cn2c(c1COC(=O)NC(C)C)CCC2,T/C,"dose: 25.0 mg/kg/injection, schedule: Q01DX005 (ip), vehicle: saline with Tween-80",128 % of control [5 of 6 alive]
same,T/C,[8],126 [5 of 6 alive] and 133 % of control
same,survivor count,[9],1 of 6 and 3 of 6
CS(=O)(=O)CC#N,survivor count,"dose: 60.0 mg/kg/injection, schedule: Q01DX005 (ip), vehicle: saline",0 of 6
same,survivor count,"dose: 120.0 mg/kg/injection, schedule: Q01DX005 (ip), vehicle: saline",0 of 6
same,survivor count,"dose: 240.0 mg/kg/injection, schedule: Q01DX005 (ip), vehicle: saline",0 of 6
CN(C)n1c(O)c(N=O)sc1=S,survivor count,[15],0 of 6
